Measurements reported in PubChem BioAssay AID192 (DTP/NCI, 2004).
The list does not hold the whole screen: it is rich in T/C values a quarter to a half above the control, in often repeated tests (any T/C) and in doses without a T/C. Other doses and runs of a compound stand elsewhere. T/C gives the treated animals as a percentage of the vehicle group. Some entries give survivors of the animals treated and no T/C: the source files T/C as zero there, which appears to mark a toxic dose or a test without result, not a measured value. Some doses without a T/C left all or most animals alive at the check, yet need not have been tolerated: survival well below the control is almost never listed, so the zero probably covers shortened survival too. Survivors were counted at the toxicity check, usually on the fifth day, unless a day is given; later deaths do not show. Schedules are NCI's codes, read here as Q, the interval in days (D) or hours (H), X, the number of doses. Where survival is the endpoint, this PubChem deposit counts one and a half times the control or more as active, and values a quarter to a half above the control carry no call in these data; other NCI protocols may use other cut-offs.

Test system: BDF1 mice, B16 melanoma ip, median survival T/C
Experiment: NCI In Vivo Anticancer Drug Screen. Data for tumor model B16 Melanoma (intraperitoneal) in B6D2F1 (BDF1) mice
Conditions: T/C endpoint: median survival time, higher T/C = longer survival
Summary of the method: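 Tumor-bearing mice received test compound or vehicle. Survival or tumor size was then measured in both groups. The treated-group figure was divided by the control-group figure.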

O=C1C=CC(=O)N1Cc1ccco1
T/C (dose: 65.0 mg/kg/injection, schedule: Q01DX009 (ip), vehicle: saline): 126 % of control | T/C (dose: 100.0 mg/kg/injection, schedule: Q01DX009 (ip), vehicle: saline): 127 % of control

CCCCCCCCOc1ccc(C(=O)c2ccccc2)c(O)c1
survivor count (dose: 1.5 mg/kg/injection, schedule: Q01DX009 (ip), vehicle: Klucel (hydroxypropylcellulose) (HPC)): 10 of 10 | survivor count (dose: 3.0 mg/kg/injection, schedule: Q01DX009 (ip), vehicle: Klucel (hydroxypropylcellulose) (HPC)): 10 of 10 | survivor count (dose: 12.5 mg/kg/injection, schedule: Q01DX009 (ip), vehicle: Klucel (hydroxypropylcellulose) (HPC)): 10 of 10 | survivor count (dose: 25.0 mg/kg/injection, schedule: Q01DX009 (ip), vehicle: Klucel (hydroxypropylcellulose) (HPC)): 10 of 10 | survivor count (dose: 50.0 mg/kg/injection, schedule: Q01DX009 (ip), vehicle: Klucel (hydroxypropylcellulose) (HPC)): 10 of 10 | survivor count (dose: 100.0 mg/kg/injection, schedule: Q01DX009 (ip), vehicle: Klucel (hydroxypropylcellulose) (HPC)): 10 of 10 | survivor count (dose: 200.0 mg/kg/injection, schedule: Q01DX009 (ip), vehicle: Klucel (hydroxypropylcellulose) (HPC)): 10 of 10 | survivor count (dose: 400.0 mg/kg/injection, schedule: Q01DX009 (ip), vehicle: Klucel (hydroxypropylcellulose) (HPC)): 10 of 10 | survivor count (dose: 400.0 mg/kg/injection, schedule: Q04DX003 (ip), vehicle: Klucel (hydroxypropylcellulose) (HPC)): 9 of 9

CC(NC(=O)C(F)(F)F)C(=O)O (configuration not stated)
survivor count (dose: 400.0 mg/kg/injection, schedule: Q04DX003 (ip), vehicle: saline): 10 of 10

O=C1N[C@@H]([C@H]2CC[C@H](Cl)CN2)C(=O)N[C@H]1[C@H]1CC[C@H](Cl)CN1
T/C (dose: 0.2 mg/kg/injection, schedule: Q01DX009 (ip), vehicle: saline): 128 % of control | T/C (dose: 0.4 mg/kg/injection, schedule: Q01DX009 (ip), vehicle: saline): 130 % of control | T/C (dose: 4.0 mg/kg/injection, schedule: Q01DX001 (ip), vehicle: saline): 143 % of control | T/C (dose: 4.0 mg/kg/injection, schedule: Q04DX003 (ip), vehicle: saline): 146 % of control | T/C (dose: 5.0 mg/kg/injection, schedule: Q01DX001 (ip), vehicle: saline): 140 % of control | T/C (dose: 8.0 mg/kg/injection, schedule: Q01DX001 (ip), vehicle: saline): 143 % of control | survivor count (dose: 8.0 mg/kg/injection, schedule: Q04DX003 (ip), vehicle: saline): 9 of 9 | T/C (dose: 10.0 mg/kg/injection, schedule: Q01DX001 (ip), vehicle: saline): 142 % of control | survivor count (dose: 10.0 mg/kg/injection, schedule: Q01DX009 (ip), vehicle: saline sonified): 5 of 6 | survivor count (dose: 20.0 mg/kg/injection, schedule: Q01DX009 (ip), vehicle: saline sonified): 5 of 6 | survivor count (dose: 40.0 mg/kg/injection, schedule: Q01DX009 (ip), vehicle: saline sonified): 3 of 6 | survivor count (dose: 80.0 mg/kg/injection, schedule: Q01DX009 (ip), vehicle: saline sonified): 0 of 6

CC(C)NNC(=O)C(N)CO (configuration not stated)
survivor count (dose: 400.0 mg/kg/injection, schedule: Q01DX009 (ip), vehicle: saline): 10 of 10

COc1ccc(Nc2ccnc3cc(Cl)ccc23)cc1CN(CCCl)CCCl
survivor count (dose: 5.0 mg/kg/injection, schedule: Q01DX009 (ip), vehicle: Klucel (hydroxypropylcellulose) (HPC)): 10 of 10 | survivor count (dose: 10.0 mg/kg/injection, schedule: Q01DX009 (ip), vehicle: Klucel (hydroxypropylcellulose) (HPC)): 1 of 10

NC1c2cc(Cl)ccc2-c2c(Cl)cc(Cl)cc21 (configuration not stated)
survivor count (dose: 800.0 mg/kg/injection, schedule: Q01DX009 (ip), vehicle: saline with Tween-80): 5 of 6

O=C1N=C(Oc2ccccc2)SC1=O
survivor count (dose: 50.0 mg/kg/injection, schedule: Q01DX009 (ip), vehicle: saline with Tween-80): 10 of 10 | survivor count (dose: 100.0 mg/kg/injection, schedule: Q01DX009 (ip), vehicle: saline with Tween-80): 8 of 10 | survivor count (dose: 200.0 mg/kg/injection, schedule: Q01DX009 (ip), vehicle: saline with Tween-80): 4 of 10 | survivor count (dose: 400.0 mg/kg/injection, schedule: Q01DX009 (ip), vehicle: saline with Tween-80): 0 of 10
